Source: article PMC9323616
These are yes or no findings as the source states them, for the method shown. For some of these results: In cells and extracts the contact can be indirect. Some binding calls cover weakened binding; strength is not graded here. For some of these results: Tags and fused reporters may be left off the sequences shown. Each block holds one molecule with its values, some of them ahead of it.

Experiments:
[1] = target: T1, WRKY53 (residues 1-217)-BK (Arabidopsis) (UniProt Q9SUP6); experiment: two-hybrid; yeast AH109; WRKY53 (residues 1-217) in pGBKT7 as bait, CAM1 in pGADT7 as prey; growth on SD/-Leu/-Trp, SD/-Ade/-His/-Leu/-Trp and blue colonies with X-alpha-gal; three independent experiments
T1 sequence: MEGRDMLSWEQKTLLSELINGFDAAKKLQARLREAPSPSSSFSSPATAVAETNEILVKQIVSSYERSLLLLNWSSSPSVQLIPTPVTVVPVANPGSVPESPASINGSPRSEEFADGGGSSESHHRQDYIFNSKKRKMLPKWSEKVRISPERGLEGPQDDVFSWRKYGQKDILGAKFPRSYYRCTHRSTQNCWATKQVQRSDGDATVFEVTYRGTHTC

[2] = target: T2, WRKY53-Nluc (Arabidopsis) (UniProt Q9SUP6); experiment: split reporter; firefly luciferase complementation imaging (LCI) in leaves infiltrated with Agrobacterium GV3101; imaged after 2-3 days
T2 sequence: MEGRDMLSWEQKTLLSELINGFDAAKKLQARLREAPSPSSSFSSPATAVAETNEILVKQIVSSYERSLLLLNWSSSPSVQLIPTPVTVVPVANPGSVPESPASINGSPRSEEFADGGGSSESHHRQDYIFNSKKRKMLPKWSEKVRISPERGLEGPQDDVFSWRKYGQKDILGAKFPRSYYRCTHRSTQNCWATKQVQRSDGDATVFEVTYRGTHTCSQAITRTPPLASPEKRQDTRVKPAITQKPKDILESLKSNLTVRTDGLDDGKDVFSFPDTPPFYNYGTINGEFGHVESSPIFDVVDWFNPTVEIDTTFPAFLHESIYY

CAM1-GST (Arabidopsis) [3] = target: CAM1-GST (Arabidopsis) (UniProt P0DH95); experiment: pull-down; in vitro; CAM1-GST or GST on glutathione beads, WRKY53-HIS detected with anti-HIS; buffer 1% NP40, 150 mM NaCl, 50 mM Tris-HCl, 1 mM EGTA, pH7.5; no calcium added
CAM1-GST (Arabidopsis) [4] = target: CAM1-GST (Arabidopsis) (UniProt P0DH95); experiment: condition: only with calcium added (Ca2+ concentration is 10^-2 mM in the legend of Figure 3); pull-down; pull-down of CAM1 and WRKY53 with calcium added (Figure 3c; the legend gives Ca2+ concentration 10^-2 mM)

binding [1]: binds
Molecule: CAM1-AD (calmodulin 1 in pGADT7) (from UniProt P0DH95 1-149)

binding [2]: binds
Molecule: CAM1-Cluc (from UniProt P0DH95 1-149)

binding (CAM1-GST (Arabidopsis) [3]): binds | binding (CAM1-GST (Arabidopsis) [4]): no binding
B1: WRKY53-HIS (protein, UniProt Q9SUP6 1-324)
chain: MEGRDMLSWEQKTLLSELINGFDAAKKLQARLREAPSPSSSFSSPATAVAETNEILVKQIVSSYERSLLLLNWSSSPSVQLIPTPVTVVPVANPGSVPESPASINGSPRSEEFADGGGSSESHHRQDYIFNSKKRKMLPKWSEKVRISPERGLEGPQDDVFSWRKYGQKDILGAKFPRSYYRCTHRSTQNCWATKQVQRSDGDATVFEVTYRGTHTCSQAITRTPPLASPEKRQDTRVKPAITQKPKDILESLKSNLTVRTDGLDDGKDVFSFPDTPPFYNYGTINGEFGHVESSPIFDVVDWFNPTVEIDTTFPAFLHESIYY
